Structures can show the parent of a compound that is named as a salt. The list shows a part of the results. This data set is noisy: repeats of one test often differ as much as different tests do.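 Cells: ReNCell VM human fetal ventral-midbrain neural progenitors, differentiated mitogen-free. Blinded raters compared doublecortin-stained (early neurons) or tyrosine hydroxylase-stained (dopaminergic neurons) images with untreated wells, where 0 means no change. After repeats and both raters were averaged, compounds scoring 2 or above became hits for retesting.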
Test system: ReNCell VM
Test: neuronal differentiation score (DCX+ cell fraction vs untreated, manual image score) (score (-3 to 3)); higher = more neuronal differentiation
Conditions: library: Tocriscreen; 2 uM; 2 weeks

Neuronal differentiation score, inactive:
C[C@@H]1C[C@H]2[C@@H]3CCC4=CC(=O)C=C[C@]4(C)[C@@]3(F)[C@@H](O)C[C@]2(C)[C@@]1(O)C(=O)CO [Dexamethasone] -1
O=C(c1ccc(F)cc1)C1CCN(CCn2c(=S)[nH]c3ccccc3c2=O)CC1 [Altanserin hydrochloride] 0
CC(Cc1ccccc1)(NC(=O)CN)c1ccccc1 (stereo not given) [Remacemide hydrochloride] 0
CCN(CC)c1ccc(/C=N/NC(=O)c2ccc(O)cc2)cc1 0
O=C1NN(C(=O)Nc2ccc(Br)cc2)[C@@H](c2ccccc2)[C@@H]1c1ccccc1 0
CCOC(=O)[C@H](CCc1ccccc1)N[C@H]1CCc2ccccc2N(CC(=O)O)C1=O [Benazepril hydrochloride] 0
CS(=O)(=O)Nc1c(O)ccc2c1CCCC2C1=NCCN1 (stereo not given) 0
COc1[nH]c2ccc(F)cc2c1C(=O)OCC1CCN(CCNS(C)(=O)=O)CC1.NS(=O)(=O)O 0

Reprinted at random: 2 records from the list, in no set order.
Neuronal differentiation score, inactive:
COc1[nH]c2ccc(F)cc2c1C(=O)OCC1CCN(CCNS(C)(=O)=O)CC1.NS(=O)(=O)O 0
CS(=O)(=O)Nc1c(O)ccc2c1CCCC2C1=NCCN1 (stereo not given) 0

Test system: ReNCell VM
Test: dopaminergic neuron differentiation score (TH+ cell fraction vs untreated, manual image score) (score (0 to 3)); higher = more TH+ dopaminergic neuron differentiation
Conditions: library: LOPAC; 2 uM; 4 weeks; BDNF 10 ng/ml + GDNF 10 ng/ml

Dopaminergic neuron differentiation score, inactive:
CC(=O)SCC[N+](C)(C)C [Acetylthiocholine chloride] 0
FC(F)(F)c1ccccc1-n1ccnc1 [1-[2-(Trifluoromethyl)phenyl]imidazole] 0
CCN(CC)CCCC(C)Nc1c2ccc(Cl)cc2nc2ccc(OC)cc12 (stereo not given) [Quinacrine dihydrochloride] 0
COc1cc(/C=C(\C#N)C(=O)c2ccc(O)c(O)c2)cc(I)c1O [I-OMe-Tyrphostin AG 538] 0
CC(C)C[C@H](NP(=O)(O)O[C@H]1O[C@H](C)[C@@H](O)[C@H](O)[C@@H]1O)C(=O)N[C@@H](Cc1c[nH]c2ccccc12)C(=O)O [Phosphoramidon disodium] 0
Cc1ccccc1CNc1ncnc2c1ncn2[C@@H]1O[C@H](CO)[C@@H](O)[C@H]1O [Metrifudil] 0
COc1ccc2c(c1)c(CC(=O)O)c(C)n2Cc1ccc(Cl)cc1 [1-(4-Chlorobenzyl)-5-methoxy-2-methylindole-3-acetic acid] 0
